Measured values reported in PMC2225407.
The exact form of at least one protein or probe is not confirmed. No signal at the amounts used counts as a negative. A weaker result is weaker than the reference pair of the same experiment.

Amino acid sequences for entries named in this document (tags omitted). A change or cut given only in a name is not applied to a line headed by its entry.
UniProt G5EDJ0: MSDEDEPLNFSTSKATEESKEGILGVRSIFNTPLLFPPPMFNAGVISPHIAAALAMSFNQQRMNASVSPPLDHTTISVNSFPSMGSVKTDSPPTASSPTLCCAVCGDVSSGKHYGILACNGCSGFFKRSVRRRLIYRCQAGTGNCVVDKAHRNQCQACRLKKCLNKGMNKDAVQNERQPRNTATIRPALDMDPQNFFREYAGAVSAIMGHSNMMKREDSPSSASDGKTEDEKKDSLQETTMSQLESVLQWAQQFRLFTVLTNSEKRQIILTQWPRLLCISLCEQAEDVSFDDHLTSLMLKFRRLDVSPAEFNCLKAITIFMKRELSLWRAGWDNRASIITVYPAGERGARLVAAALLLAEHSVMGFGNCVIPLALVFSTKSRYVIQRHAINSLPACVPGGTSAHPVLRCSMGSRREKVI

Molecular target: MBP::FAX-1 (Caenorhabditis elegans) (UniProt G5EDJ0)
Assay: competition with a labelled probe
Conditions: EMSA: 1.5 ug MBP::FAX-1, 4 ng 32P ds oligo, BSA, 30 min pre-incubation + 30 min on ice, 8% native PAGE, binding buffer salt and pH not given, recombinant protein, protein details: MBP (N-terminal fusion implied by name), label: 32P (fill-in) as probe, unlabeled as competitor
[1] = 10x and 100x unlabeled vs labeled HRSW
[2] = 10x and 100x unlabeled vs labeled DR1A

| Sequence | binding result [1] | binding result [2] | other results |
| --- | --- | --- | --- |
| AATTACCCTTTTAAAAGTCAAAATTCAACTTCCAA / TCGATTGGAAGTTGAATTTTGACTTTTAAAAGGGT [HRSW] | binds | – | – |
| AATTACCCTTTTAAAAGTCAAAAGTCAACTTCCAA / TCGATTGGAAGTTGACTTTTGACTTTTAAAAGGGT [DR1A] | – | binds | binding result (unlabeled vs labeled DR1C, more effective than DR1C): binds |
| AATTACCCTTTTAAAGGTCAAAGGTCAACTTCCAA / TCGATTGGAAGTTGACCTTTGACCTTTAAAAGGGT [DR1G] | – | – | binding result (10x and 100x unlabeled vs labeled DR1A, similar to DR1A): binds |
| AATTACCCTTTTAAAATTCAAAATTCAACTTCCAA / TCGATTGGAAGTTGAATTTTGAATTTTAAAAGGGT [DRNC] | no binding | no binding | – |
| AATTACCCTTTTAAACGTCAAACGTCAACTTCCAA / TCGATTGGAAGTTGACGTTTGACGTTTAAAAGGGT [DR1C] | – | – | binding result (unlabeled vs labeled DR1C, less effective than DR1A): binds more weakly |
